The values that follow come from patent US20140050732A1.

Protein sequences, listed by entry. Tags and fused reporters are not part of them. Lines headed by an entry give the natural chain unless they say otherwise; changes in a name come on top.
UniProt P51749: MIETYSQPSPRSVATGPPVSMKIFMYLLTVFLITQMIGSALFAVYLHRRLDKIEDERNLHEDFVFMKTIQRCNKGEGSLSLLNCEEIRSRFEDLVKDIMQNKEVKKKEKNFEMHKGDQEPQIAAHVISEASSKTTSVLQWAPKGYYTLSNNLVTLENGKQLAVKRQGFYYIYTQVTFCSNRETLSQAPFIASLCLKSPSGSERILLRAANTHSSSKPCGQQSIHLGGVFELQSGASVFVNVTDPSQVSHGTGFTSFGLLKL

These are yes or no findings as the source states them, for the method shown. Some results given as binding are weak or reduced against the parent protein; the word gives no strength.

This assay concerns the target T1, bovine CD40 receptor (Bos taurus (bovine)) (UniProt Q28203).
T1 sequence: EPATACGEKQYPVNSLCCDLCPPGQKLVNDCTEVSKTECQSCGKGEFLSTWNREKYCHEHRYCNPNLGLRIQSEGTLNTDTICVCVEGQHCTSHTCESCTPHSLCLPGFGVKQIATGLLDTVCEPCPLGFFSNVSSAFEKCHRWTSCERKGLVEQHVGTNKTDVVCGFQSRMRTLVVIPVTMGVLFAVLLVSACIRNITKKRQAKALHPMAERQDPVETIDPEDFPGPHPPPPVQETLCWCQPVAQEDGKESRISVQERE
Kind of assay: flow cytometry on Cos7 cells transfected with bovine CD40 or not; detection with anti-GST antibodies and PE-anti-rabbit IgG; GST alone as control.

Consider “GST-fusion CD40L proteins (bovine CD40L fused to glutathione S-transferase, produced in BL21-A1 bacteria) (from UniProt P51749 113-261) (ligand)”, for which the binding result was “binds”.
